These are yes or no findings as the source states them, for the method shown. In cells and extracts the contact can be indirect. Some results given as binding are weak or reduced against the parent protein; the word gives no strength.
Tests used:
[1] = molecular target: HA-tagged wild type DRP-1 (human) (UniProt Q9UIK4); assay: co-immunoprecipitation (anti-FLAG and anti-HA) from co-transfected 293 cells, Western blot
[2] = molecular target: HA-tagged wild type DRP-1 (human) (UniProt Q9UIK4); assay: co-immunoprecipitation in both directions, Western blot (FIG. 12A, lane 3)
[3] = molecular target: HA-tagged wild type DRP-1 (human) (UniProt Q9UIK4); assay: co-immunoprecipitation with anti-FLAG M2 gel from co-transfected 293 cells, anti-HA Western blot
[4] = molecular target: DRP-1 Δ40, HA-tagged (lacks the C-terminal 40 amino acids) (human) (UniProt Q9UIK4); assay: as above

Sequences of proteins named here, by UniProt entry; tags and fusion partners are left off. A change or cut given only in a name is not applied to a line headed by its entry.
UniProt Q9UIK4: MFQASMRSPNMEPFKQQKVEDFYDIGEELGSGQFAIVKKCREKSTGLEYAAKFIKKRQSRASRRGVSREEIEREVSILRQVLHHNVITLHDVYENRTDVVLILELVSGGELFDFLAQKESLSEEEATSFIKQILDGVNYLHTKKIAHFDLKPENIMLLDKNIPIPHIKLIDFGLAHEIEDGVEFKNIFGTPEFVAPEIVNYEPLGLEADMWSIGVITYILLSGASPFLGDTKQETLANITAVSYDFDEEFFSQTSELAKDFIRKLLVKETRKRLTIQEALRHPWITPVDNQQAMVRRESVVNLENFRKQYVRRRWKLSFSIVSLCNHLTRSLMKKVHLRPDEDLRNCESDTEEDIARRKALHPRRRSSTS

FLAG-tagged wild type DRP-1 (DAP-kinase-related protein 1) (from UniProt Q9UIK4 11-370) (enzyme)
binding [1]: binds | binding [2]: binds | binding [3]: binds | binding [4]: no binding

Reference: patent US7026148
